# The other results are listed elsewhere or left out. Shown are side measurements of this screen, not its main read-out; they come without a call. The list favours compounds with an active or inconclusive main result. The note in brackets gives the kind of curve behind each potency; many fits are weak.
# Assay: qHTS Assay for Lipid Storage Modulators in Drosophila S3 Cells;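 as to cell number change: cells counted by Cell Tracker Red CMTPX staining in the red channel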
# Settings: BODIPY lipid droplet fluorescence, 18-24 h; for cell number change: measured here: cell count max response, cells fed with added oleic acid
# Procedure, shortened: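 Laser-scanning cytometry quantifies lipid droplet accumulation (500–530 nm total intensity; droplet/cell object ratio) in oleic acid-fed (400 uM added) Drosophila S3 cells treated with a concentration series. 20 uM Triacsin C defined 100% inhibition.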
# [1] = measured here: lipid fluorescence (Fed channel) AC50, cells fed with added oleic acid
# [2] = measured here: cell number channel AC50, cells fed with added oleic acid
Compound,cell number change,AC50 [1],AC50 [2]
CCOc1ccc(N(CC(=O)N/N=C/c2cc(Br)c(C)o2)S(C)(=O)=O)cc1,-8.01%,"0.651 µM [falling, full curve, poor fit]",
CCOC(=O)c1nnn(-c2ccccc2C#N)c1C,-7.52%,"0.731 µM [rising, single point]","0.731 µM [rising, single point]"
CCCCOc1cc(=O)[nH]c(=O)[nH]1,-32.7%,"1.16 µM [falling, full curve]","0.146 µM [falling, full curve]"
CC(=O)N/C(=C/c1ccc(OS(=O)(=O)c2ccc(C)cc2)cc1)C(=O)Nc1ccc(C(=O)O)cc1,-5.38%,"0.184 µM [rising, full curve, poor fit]",
Cc1onc(-c2ccccc2)c1C(=O)OCC(=O)Nc1ccccc1,25%,,"2.31 µM [rising, full curve, poor fit]"
NS(=O)(=O)c1ccc(NC(=S)N2CCc3ccccc32)cc1,-13.8%,"14.6 µM [rising, single point]",
CCN(CC)S(=O)(=O)c1cc(NC(=O)C2=COCCO2)ccc1Cl,-20.4%,"6.51 µM [rising, single point]",
COc1cc(NC(=O)CSc2nnnn2Cc2ccccc2)cc(OC)c1,28.8%,"1.46 µM [rising, full curve, poor fit]",
CC(=O)N1CCN=C1SCc1c(F)cccc1Cl,21.2%,"29.1 µM [rising, single point]",
O=C1C=C(c2cc(F)ccc2F)C[C@@H](c2ccc(Cl)cc2)C1,6.94%,"6.51 µM [falling, single point]",
COc1cccc(N2CCN(C(=S)Nc3ccc(F)cc3)CC2)c1,36.5%,,"20.6 µM [rising, single point]"
O=C(Nc1ccc(O)cc1C(=O)O)c1cccc(Br)c1,31.7%,,"20.6 µM [rising, single point]"
COc1cccc(NC(=O)CN2CCN(c3nc(-c4cccc(OC)c4)cs3)CC2)c1,-17.9%,"29.1 µM [falling, single point]",
CC(C)c1ccc(C(=O)NCCCN2CCN(CCCNC(=O)c3ccc(C(C)C)cc3)CC2)cc1,-7.98%,"0.00517 µM [falling, full curve, poor fit]",
CCNc1nc(NCC)n2c(SCC(=O)Nc3ccccc3F)nnc2n1,30.6%,"0.103 µM [rising, full curve, poor fit]","0.082 µM [rising, full curve, poor fit]"
CN(Cc1c(C(=O)N/N=C/c2ccccc2)nnn1-c1nonc1N)C1CCCCC1,22.5%,,
CCCCCOc1ccc(C(=O)NCC2(c3ccccc3)CCOCC2)cc1,13.7%,,
COc1cc(NC(=O)CCc2nnc3ccc(N4CCC5(CC4)OCCO5)nn23)cc(OC)c1,-34.1%,"29.1 µM [falling, single point]","0.366 µM [falling, partial curve]"
O=C(Cc1ccc(Cl)cc1)NC1CC1,-44.3%,"29.1 µM [falling, single point]",
CC(=O)Nc1ccccc1C(=O)C(=O)Nc1ccc(C)c(C)c1,-6.97%,"29.1 µM [rising, single point]",

Compound,cell number change,AC50 [1],AC50 [2]
COc1cc(CNCCO)ccc1OC1CCCC1,-11.9%,"29.1 µM [falling, single point]",
CCOC(=O)Cc1csc(NC(=O)CN2CCN(CC)CC2)n1,-19.2%,"29.1 µM [rising, single point]",
CCC(=O)NC(Nc1cc(C)ccn1)(C(F)(F)F)C(F)(F)F,-46%,"6.51 µM [rising, single point]","2.59 µM [falling, partial curve]"
O=C(NCCCc1ccccc1)c1ccccc1O,-31.5%,"29.1 µM [falling, single point]","29.1 µM [falling, single point]"
COC(c1ccccc1)c1nnc(CCC(=O)NC2C3CC4CC(C3)CC2C4)o1 (stereo not given),-64.3%,"2.59 µM [falling, full curve]","5.8 µM [falling, full curve]"
Cc1ccc(NC(=O)CCN2CC(C)OC(C)C2)cc1C (stereo not given),,"0.651 µM [falling, single point]",
Cc1ccc2nsnc2c1N(S(C)(=O)=O)S(C)(=O)=O,-4.67%,"0.411 µM [falling, full curve, poor fit]",
CCOc1ccc2oc(C(=O)OCC(=O)NCC3CCCO3)c(C)c2c1 (stereo not given),148%,,"20.6 µM [rising, single point]"
Cc1sc2ncnc(SCC(=O)c3cccs3)c2c1C,-21.6%,"3.26 µM [rising, single point]",
Cc1ccc(S(=O)(=O)Cc2cn3cccnc3n2)cc1,-2.58%,"6.51 µM [rising, single point]",
O=C(NC(=S)Nc1ccc(Br)cn1)c1cncc(Br)c1,24.8%,"4.61 µM [rising, full curve, poor fit]",
Cc1[nH]c2ccccc2c1/C=N/NC(=O)Cc1cccs1,11.2%,"0.92 µM [rising, full curve, poor fit]",
C#CCn1ccc(O)c(Cc2c(F)cccc2Cl)c1=O,-15.9%,"29.1 µM [falling, single point]",
Cc1ccc(NC(=O)Nc2nnc(-c3ccccc3)o2)cc1,132%,,"29.1 µM [rising, partial curve, poor fit]"
COc1ccc(CNC(=O)c2sccc2C)cc1,21.6%,"18.4 µM [rising, partial curve]","0.291 µM [rising, full curve, poor fit]"
CCOC(=O)c1c(C)oc(/N=C/c2ccccc2O)c1C#N,-10.1%,"6.51 µM [falling, single point]",
Cn1c2c(c(=O)n(C)c1=O)C(NC(=O)C(C)(C)C)(C(F)(F)F)C(=O)N2 (stereo not given),14.2%,"29.1 µM [falling, single point]",
CC1(C)CC(=O)C2=C(C1)N(c1ccccc1)C(=O)CC2c1ccsc1 (stereo not given),19.9%,"20.6 µM [rising, single point]",
O=C(CC1NCCNC1=O)Nc1ccc(Oc2ccccc2)cc1 (stereo not given),,"6.51 µM [rising, single point]","2.06 µM [rising, partial curve]"
COc1cc(S(=O)(=O)N2CCN(c3ccccc3)CC2)ccc1Cl,8.03%,,

# Given tab-delimited: entries from further up.
Compound	cell number change	AC50 [1]	AC50 [2]
CCC(=O)NC(Nc1cc(C)ccn1)(C(F)(F)F)C(F)(F)F	-46%	6.51 µM [rising, single point]	2.59 µM [falling, partial curve]
C#CCn1ccc(O)c(Cc2c(F)cccc2Cl)c1=O	-15.9%	29.1 µM [falling, single point]	

# Continuation.

Compound,cell number change,AC50 [1],AC50 [2]
Cc1ccccc1Cn1c(=N)n(CC(O)c2ccco2)c2ccccc21 (stereo not given),49.8%,,"20.6 µM [rising, single point]"
O=C(Nc1nc(-c2ccc(Br)cc2)cs1)c1cccnc1,-0.176%,"29.1 µM [falling, partial curve, poor fit]",
CN(Cc1ccc(F)cc1)C(=O)C(c1ccccc1)c1ccccc1,43.7%,,"29.1 µM [rising, single point]"
CC(Oc1ccc(C#N)cc1)C(=O)c1ccc(F)c(F)c1 (stereo not given),,"6.51 µM [falling, single point]",
CC(C)(C)c1ccc(C(=O)NCC(=O)OCC(=O)Nc2nc(-c3ccc(F)cc3)cs2)cc1,-48.2%,"0.00517 µM [falling, full curve, poor fit]","1.16 µM [falling, full curve]"
CC1CN(C2CCN(S(=O)(=O)c3ccccc3)CC2)CC(C)O1 (stereo not given),-24.1%,"0.82 µM [falling, full curve, poor fit]",
CCCN(C(=O)CSc1nc2ccccc2n1CC)C1CCS(=O)(=O)C1 (stereo not given),17.3%,,
Cc1ccc(-n2ncc(C(=O)NC3CC3)c2C2CCN(C(=O)OC(C)(C)C)CC2)c(C)c1,3.79%,"0.517 µM [falling, full curve]",
COc1ccc(NC(=O)/C(Cl)=C(/Cl)S(=O)Cc2ccc(C)cc2)cn1 (stereo not given),-172%,,"3.66 µM [falling, full curve]"
CCOCC(=O)Nc1ccc(Br)c(C)c1,-18.4%,"3.66 µM [falling, partial curve, poor fit]","2.31 µM [falling, single point]"
CC(C)(C)NC(=O)CN(C(=O)c1snc(C(=O)NC2CCCCC2)c1N)c1ccc(F)cc1,-33.3%,"0.206 µM [rising, single point]","29.1 µM [falling, single point]"
CCc1nc2c(sc3nc4c(cc32)COC(C)(C)C4)c(=O)n1CCN(CC)CC,5.49%,,
Cc1nc(SCC(C)C)[nH]c(=O)c1Cc1ccccc1,-22.4%,"0.82 µM [falling, full curve, poor fit]",
COc1ccc(-c2nnc(SCc3nnc(-c4ccccc4)o3)n2-c2ccccc2)cc1,4.75%,"0.116 µM [rising, full curve]",
CNC(=S)NNC(=O)c1sccc1OCc1cccc(C(F)(F)F)c1,-10.1%,,
COc1cccc(C(=O)c2ncc(C(F)(F)F)cc2Cl)c1,10.9%,,
CCN1CCN(S(=O)(=O)c2ccc(OC)c(Br)c2)CC1,,,"0.082 µM [falling, partial curve, poor fit]"
Cc1nnsc1NC(=O)OCc1ccc(C(C)(C)C)cc1,-12.6%,"29.1 µM [falling, single point]",
COCCN(C(=O)COC(=O)CC(C)c1ccccc1)c1c(N)n(Cc2ccccc2)c(=O)[nH]c1=O (stereo not given),-10.4%,,
Cn1c(SCC(=O)NCC2CCCO2)ncc(C(=O)Nc2ccc(F)cc2)c1=O (stereo not given),7.3%,"5.17 µM [falling, single point]",
